Assay results from PMC5853960.
Results are given in words; binding and its absence hold for the method and conditions named. Binding seen in cells or lysates may run through a third protein. Binding calls can cover weak binding; strength is not graded here. Where a sequence is shown, tags or fusion partners need not be part of it.

By UniProt entry, the sequences of proteins in these tests, tags left out. Where a name states a change or a piece, a line headed by the entry shows the natural chain unless it says otherwise.
UniProt Q9SYW8: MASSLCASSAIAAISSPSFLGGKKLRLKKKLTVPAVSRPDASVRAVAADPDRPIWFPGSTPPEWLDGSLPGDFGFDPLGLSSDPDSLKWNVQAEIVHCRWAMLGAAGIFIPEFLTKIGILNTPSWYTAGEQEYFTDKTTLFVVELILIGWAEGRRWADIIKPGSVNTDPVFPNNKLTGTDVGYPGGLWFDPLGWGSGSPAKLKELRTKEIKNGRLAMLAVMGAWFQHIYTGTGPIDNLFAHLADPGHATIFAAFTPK
UniProt Q9S7N7: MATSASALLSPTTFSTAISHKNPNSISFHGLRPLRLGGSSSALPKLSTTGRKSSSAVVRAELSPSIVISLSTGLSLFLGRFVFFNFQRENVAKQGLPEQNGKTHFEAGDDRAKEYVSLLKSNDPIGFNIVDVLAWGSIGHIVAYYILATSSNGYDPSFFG
UniProt Q9XF91: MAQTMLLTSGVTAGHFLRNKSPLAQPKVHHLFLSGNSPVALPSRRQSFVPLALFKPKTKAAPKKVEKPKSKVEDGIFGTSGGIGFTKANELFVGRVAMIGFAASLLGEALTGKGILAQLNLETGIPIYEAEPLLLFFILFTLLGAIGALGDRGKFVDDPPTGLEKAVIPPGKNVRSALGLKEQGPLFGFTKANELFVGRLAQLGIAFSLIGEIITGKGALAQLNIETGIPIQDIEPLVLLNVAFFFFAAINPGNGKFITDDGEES

Target: T1, QQT1–nLUC (Arabidopsis thaliana) (UniProt Q56XY2)
T1 sequence: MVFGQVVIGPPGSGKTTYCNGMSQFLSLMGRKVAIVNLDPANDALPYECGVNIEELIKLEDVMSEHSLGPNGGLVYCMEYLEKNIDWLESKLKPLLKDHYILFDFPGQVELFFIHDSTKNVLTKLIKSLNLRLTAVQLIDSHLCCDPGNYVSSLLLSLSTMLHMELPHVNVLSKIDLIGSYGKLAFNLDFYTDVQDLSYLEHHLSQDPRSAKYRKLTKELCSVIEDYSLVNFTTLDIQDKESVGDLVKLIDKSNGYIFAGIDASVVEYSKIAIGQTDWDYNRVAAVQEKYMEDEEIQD
Experiment: split reporter; firefly luciferase complementation imaging (LCI): nLUC and cLUC fusions co-expressed by agroinfiltration (with p19) in N. benthamiana leaves for 2 d; 1 mM luciferin sprayed, LUC images taken

Substance | binding
PSI light-harvesting complex gene 2 (LHCA2)–cLUC (from UniProt Q9SYW8) | binds
PSI subunit G (PSAG)–cLUC (from UniProt Q9S7N7) | binds
PSII light-harvesting complex gene B1B1 (LHCB1)–cLUC (Arabidopsis thaliana) | binds
PSII subunit S (PSBS)–cLUC (from UniProt Q9XF91) | binds
U11/U12-31K protein, LCI construct (Arabidopsis thaliana) | no binding
U11/U12-59K protein, LCI construct | no binding
U11/U12-65K protein, LCI construct (Arabidopsis thaliana) | no binding
